Reference: patent US7956084B2, “Phenyl thiophene carboxamide compounds as inhibitors of the enzyme IKK-2” (AstraZeneca AB, priority 2001, dated 2011)
Some results were stated once for a whole list of compounds, not compound by compound.

Target: T1, IKK-2 (Homo sapiens, UniProt O14920)
T1 sequence (O14920 1-756): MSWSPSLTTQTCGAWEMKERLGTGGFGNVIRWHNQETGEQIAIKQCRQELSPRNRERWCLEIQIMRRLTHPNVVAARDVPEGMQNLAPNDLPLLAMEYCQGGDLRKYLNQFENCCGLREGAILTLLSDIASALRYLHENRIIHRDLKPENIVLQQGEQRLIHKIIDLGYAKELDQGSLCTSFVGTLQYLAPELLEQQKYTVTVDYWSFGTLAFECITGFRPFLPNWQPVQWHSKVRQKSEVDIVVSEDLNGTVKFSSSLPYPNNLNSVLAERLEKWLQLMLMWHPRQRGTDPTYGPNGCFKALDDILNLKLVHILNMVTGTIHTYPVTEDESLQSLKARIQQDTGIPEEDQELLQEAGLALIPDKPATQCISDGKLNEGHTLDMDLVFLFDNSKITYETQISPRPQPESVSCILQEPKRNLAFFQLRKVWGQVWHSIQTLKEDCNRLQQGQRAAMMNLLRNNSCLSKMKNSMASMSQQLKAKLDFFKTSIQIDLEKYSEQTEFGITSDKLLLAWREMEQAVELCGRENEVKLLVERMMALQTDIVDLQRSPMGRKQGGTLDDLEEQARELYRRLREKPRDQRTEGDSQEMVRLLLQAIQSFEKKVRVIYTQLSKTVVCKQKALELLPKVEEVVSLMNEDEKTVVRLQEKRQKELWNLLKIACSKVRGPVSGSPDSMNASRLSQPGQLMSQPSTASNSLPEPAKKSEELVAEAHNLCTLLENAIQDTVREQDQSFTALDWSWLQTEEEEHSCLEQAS
Assay: IKK-2 Filter Kinase Assay
Format: biochemical
Conditions: 1 μM ATP, 33P ATP, 1-53 GST-IκB substrate, 21° C. for 80 minutes

IC50, < 10 µM:
CC1C=CC(C)N1CCOc1ccccc1-c1cc(C(N)=O)c(NC(N)=O)s1 (mixture of isomers) [Example 156, Cis/trans-2-[(Aminocarbonyl)amino]-5-{2-[2-(2,5-dimethyl-3-pyrrolin-1-yl)ethoxy]phenylthiophene-3-carboxamide]
Cc1c(-c2ccc(-c3ccccc3)cc2)sc(NC(N)=O)c1C(N)=O [Example 1, 2-[(Aminocarbonyl)amino]-4-methyl-5-(4-biphenyl)-3-thiophenecarboxamide]
Cc1noc(C)c1COc1ccc(-c2cc(C(N)=O)c(CNC(N)=O)s2)cc1 [Example 2, 2-[(Aminocarbonyl)amino]methyl-5-(4-[(3,5-dimethylisoxazol-4-yl)methoxy]phenyl)-3-thiophenecarboxamide]
Cc1c(-c2ccc(OCc3ccc(Cl)cc3)cc2)sc(NC(N)=O)c1C(N)=O [Example 3, 2-[(Aminocarbonyl)amino]-4-methyl-5-(4-[(4-chlorophenyl)methoxy]phenyl)-3-thiophenecarboxamide]
Cc1c(-c2ccc(OCc3ccc(Cl)s3)cc2)sc(NC(N)=O)c1C(N)=O [Example 4, 2-[(Aminocarbonyl)amino]-4-methyl-5-(4-[(5-chlorothien-2-yl)methoxy]phenyl)-3-thiophenecarboxamide]
Cc1c(-c2ccc(OCCN3C(C)(C)CCCC3(C)C)cc2)sc(NC(N)=O)c1C(N)=O [Example 5, 2-[(Aminocarbonyl)amino]-4-methyl-5-{4-[2-(2,2,6,6-tetramethylpiperidin-1-yl)ethoxy]phenyl}-3-thiophenecarboxamide]
Cc1c(-c2ccc(OCc3cscn3)cc2)sc(NC(N)=O)c1C(N)=O [Example 6]
Cc1c(-c2ccc(OCc3cnsn3)cc2)sc(NC(N)=O)c1C(N)=O [Example 7, 2-[(Aminocarbonyl)amino]-4-methyl-5-(4-[(1,2,5-thiadiazol-3-yl)methoxy]phenyl)-3-thiophenecarboxamide]
Cc1c(-c2ccc(OC3CCCCN(C)C3)cc2)sc(NC(N)=O)c1C(N)=O (stereo not drawn) [Example 8, 2-[(Aminocarbonyl)amino]-4-methyl-5-(4-[(1-methylperhydroazepin-3-yl)oxy]phenyl)-3-thiophenecarboxamide]
NC(=O)Nc1sc(-c2ccc(N3CCCC3)nc2)cc1C(N)=O [Example 9, 2-[(Aminocarbonyl)amino]-5-[6-(pyrrolidin-1-yl)pyridin-3-yl]-3-thiophenecarboxamide]
NC(=O)Nc1sc(-c2ccc(OCC(F)F)nc2)cc1C(N)=O [Example 10, 2-[(Aminocarbonyl)amino]-5-[6-(2,2-difluoroethoxy)pyridin-3-yl]-3-thiophenecarboxamide]
NC(=O)Nc1sc(-c2ccc(N3CCCCC3)nc2)cc1C(N)=O [Example 11, 2-[(Aminocarbonyl)amino]-5-[6-(piperidin-1-yl)pyridin-3-yl]-3-thiophenecarboxamide]
NC(=O)Nc1sc(-c2ccc(OC3CCCC3)nc2)cc1C(N)=O [Example 12, 2-[(Aminocarbonyl)amino]-5-[6-(cyclopentyloxy)pyridin-3-yl]-3-thiophenecarboxamide]
CCS(=O)(=O)N1CCN(c2ccc(-c3cc(C(N)=O)c(NC(N)=O)s3)cn2)CC1 [Example 13, 2-[(Aminocarbonyl)amino]-5-[6-(4-ethanesulfonylpiperazin-1-yl)pyridin-3-yl]-3-thiophenecarboxamide]
NC(=O)Nc1sc(-c2ccc(OCC3CCCO3)nc2)cc1C(N)=O (stereo not drawn) [Example 14, 2-[(Aminocarbonyl)amino]-5-[6-[(tetrahydrofuran-2-yl)methoxy]pyridin-3-yl]-3-thiophenecarboxamide]
NC(=O)Nc1sc(-c2ccc(OCc3ccco3)nc2)cc1C(N)=O [Example 15, 2-[(Aminocarbonyl)amino]-5-{3-[6-(furan-2-ylmethoxy)]-pyridine}-3-thiophenecarboxamide]
CC(=O)N1CCN(c2ccc(-c3cc(C(N)=O)c(NC(N)=O)s3)cn2)CC1 [Example 16, 2-[(Aminocarbonyl)amino]-5-{3-[6-(4-acetyl)piperazin-1-yl]-pyridine}-3-thiophenecarboxamide]
NC(=O)Nc1sc(-c2ccc(O[C@@H]3CCOC3)nc2)cc1C(N)=O [Example 17, (R)-2-[(Aminocarbonyl)amino]-5-{3-[6-(tetrahydrofuran-3-yloxy)]-pyridine}-3-thiophenecarboxamide]
CC(C)N1CCC(Oc2ccc(-c3cc(C(N)=O)c(NC(N)=O)s3)cn2)C1 (stereo not drawn) [Example 18, 2-[(Aminocarbonyl)amino]-5-{3-[6-(1-isopropyl-pyrrolidin-3-yloxy)]-pyridine}-3-thiophenecarboxamide]
CC(C)(C)OC(=O)N1CCC(Oc2ccc(-c3cc(C(N)=O)c(NC(N)=O)s3)cn2)CC1 [Example 19]
NC(=O)Nc1sc(-c2ccc(OC3CCNCC3)nc2)cc1C(N)=O [Example 20, 2-[(Aminocarbonyl)amino]-5-{3-[6-(piperidin-4-yloxy)]-pyridine}-3-thiophenecarboxamide]
COCCN1CCC(Oc2ccc(-c3cc(C(N)=O)c(NC(N)=O)s3)cn2)CC1 [Example 21, 2-[(Aminocarbonyl)amino]-5-{3-[6-(1-(2-methoxyethyl)-piperidin-4-yloxy)]-pyridine}-3-thiophenecarboxamide]
CS(=O)(=O)N1CCC(Oc2ccc(-c3cc(C(N)=O)c(NC(N)=O)s3)cn2)CC1 [Example 22, 2[(Aminocarbonyl)amino]-5-{3-[6-(N-methanesulphonyl)-piperidin-4-yloxy]-pyridine}-3-thiophenecarboxamide]
Cc1cc(-c2cc(C(N)=O)c(NC(N)=O)s2)cnc1N1CCCC1 [Example 24, 2-[(Aminocarbonyl)amino]-5-{3-[6-(pyrrolidin-1-yl)-5-methyl]pyridine}-3-thiophenecarboxamide]
NC(=O)Nc1sc(-c2ccc(OCc3cccs3)nc2)cc1C(N)=O [Example 25, 2-[(Aminocarbonyl)amino]-5-{3-[6-(thien-2-ylmethoxy)]pyridine}-3-thiophenecarboxamide]
NC(=O)Nc1sc(-c2ccc(OCC3CCCC3)nc2)cc1C(N)=O [Example 26, 2-[(Aminocarbonyl)amino]-5-{3-[6-(cyclopentylmethyl)]pyridine}-3-thiophenecarboxamide]
NC(=O)Nc1sc(-c2ccc(OCc3ccccc3)nc2)cc1C(N)=O [Example 27, 2-[(Aminocarbonyl)amino]-5-[3-(6-benzyloxy)pyridine]-3-thiophenecarboxamide]
NC(=O)Nc1sc(-c2ccc(OC3CCOC3)nc2)cc1C(N)=O (stereo not drawn) [Example 28, 2-[(Aminocarbonyl)amino]-5-{3-[6-(tetrahydrofuran-3-yloxy)]pyridine}-3-thiophenecarboxamide]
NC(=O)Nc1sc(-c2ccc(OCC3CCOC3)nc2)cc1C(N)=O (stereo not drawn) [Example 29, 2-[(Aminocarbonyl)amino]-5-{3-[6-(tetrahydrofuran-3-ylmethoxy)]pyridine}-3-thiophenecarboxamide]
NC(=O)Nc1sc(-c2ccc(OCC3CC3)nc2)cc1C(N)=O [Example 30, 2-[(Aminocarbonyl)amino]-5-{3-[6-(cyclopropylmethoxy)]pyridine}-3-thiophenecarboxamide]
NC(=O)Nc1sc(-c2ccc(O[C@H]3CCOC3)nc2)cc1C(N)=O [Example 31, (S)-2-[(Aminocarbonyl)amino]-5-{3-[6-(tetrahydrofuran-3-yloxy)]pyridine}-3-thiophenecarboxamide]
NC(=O)Nc1sc(-c2ccc(OC3CCOCC3)nc2)cc1C(N)=O [Example 32, 2-[(Aminocarbonyl)amino]-5-{3-[6-(tetrahydropyran-4-yloxy)]pyridine}-3-thiophenecarboxamide]
NC(=O)Nc1sc(-c2ccc(OC3CCCSC3)nc2)cc1C(N)=O (stereo not drawn) [Example 33, 2-[(Aminocarbonyl)amino]-5-{3-[6-(tetrahydrothiopyran-3-yloxy)]pyridine}-3-thiophenecarboxamide]
CC(C)N1CC(Oc2ccc(-c3cc(C(N)=O)c(NC(N)=O)s3)cn2)C1 [Example 34, 2-[(Aminocarbonyl)amino]-5-{3-[6-(1-isopropylazetidin-3-yloxy)]pyridine}-3-thiophenecarboxamide]
NC(=O)Nc1sc(-c2ccc(OCCOCc3ccccc3)nc2)cc1C(N)=O [Example 35, 2-[(Aminocarbonyl)amino]-5-{3-[6-(benzyloxy-2-ethoxy)]pyridine}-3-thiophenecarboxamide]
CN1CCCC(Oc2ccc(-c3cc(C(N)=O)c(NC(N)=O)s3)cn2)C1 (stereo not drawn) [Example 36, 2-[(Aminocarbonyl)amino]-5-{3-[6-(N-methylpiperidin-3-yloxy)]pyridine}-3-thiophenecarboxamide]
